Assay in all cases: PRISMA enrichment of interactor (LFQ) in peptide spot vs all other peptide spots (log2 fold change); higher = stronger / more specific binding of the interactor to the peptide
One assay addresses ALYREF, Q86V81. The procedure: (§1)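 PRISMA: 15-aa overlapping tiles (offset 8 aa) of 60 microproteins, plus SOS1/GLUT1 control peptides, were spot-synthesized on cellulose membranes in triplicate. Membranes were incubated with benzonase-treated HEK293T lysate, and bound proteins were identified by LC-MS/MS with LFQ. Enrichment is the log2 fold change of each protein in one spot versus all other spots. Only interactors passing the significance cutoff are listed.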

Amino acid sequences for entries named in this document (tags omitted).
PPP2R5D, Q14738, UniProt Q14738, whole entry: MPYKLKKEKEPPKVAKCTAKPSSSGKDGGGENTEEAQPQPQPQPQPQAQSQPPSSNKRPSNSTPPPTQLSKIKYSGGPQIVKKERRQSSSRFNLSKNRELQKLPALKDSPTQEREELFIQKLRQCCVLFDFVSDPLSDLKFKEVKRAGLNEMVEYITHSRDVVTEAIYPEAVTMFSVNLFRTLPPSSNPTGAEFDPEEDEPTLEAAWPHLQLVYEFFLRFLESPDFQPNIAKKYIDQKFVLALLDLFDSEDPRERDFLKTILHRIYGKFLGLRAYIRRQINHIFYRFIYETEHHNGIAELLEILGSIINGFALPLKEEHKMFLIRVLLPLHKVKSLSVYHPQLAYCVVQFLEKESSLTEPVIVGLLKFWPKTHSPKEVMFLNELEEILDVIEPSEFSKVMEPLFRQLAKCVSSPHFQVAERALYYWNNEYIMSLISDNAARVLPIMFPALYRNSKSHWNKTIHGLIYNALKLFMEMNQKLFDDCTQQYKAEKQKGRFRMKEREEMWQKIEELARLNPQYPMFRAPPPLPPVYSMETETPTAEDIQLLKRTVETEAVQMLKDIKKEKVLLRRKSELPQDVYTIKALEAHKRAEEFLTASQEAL
ATXN2, Q99700, UniProt Q99700, whole entry: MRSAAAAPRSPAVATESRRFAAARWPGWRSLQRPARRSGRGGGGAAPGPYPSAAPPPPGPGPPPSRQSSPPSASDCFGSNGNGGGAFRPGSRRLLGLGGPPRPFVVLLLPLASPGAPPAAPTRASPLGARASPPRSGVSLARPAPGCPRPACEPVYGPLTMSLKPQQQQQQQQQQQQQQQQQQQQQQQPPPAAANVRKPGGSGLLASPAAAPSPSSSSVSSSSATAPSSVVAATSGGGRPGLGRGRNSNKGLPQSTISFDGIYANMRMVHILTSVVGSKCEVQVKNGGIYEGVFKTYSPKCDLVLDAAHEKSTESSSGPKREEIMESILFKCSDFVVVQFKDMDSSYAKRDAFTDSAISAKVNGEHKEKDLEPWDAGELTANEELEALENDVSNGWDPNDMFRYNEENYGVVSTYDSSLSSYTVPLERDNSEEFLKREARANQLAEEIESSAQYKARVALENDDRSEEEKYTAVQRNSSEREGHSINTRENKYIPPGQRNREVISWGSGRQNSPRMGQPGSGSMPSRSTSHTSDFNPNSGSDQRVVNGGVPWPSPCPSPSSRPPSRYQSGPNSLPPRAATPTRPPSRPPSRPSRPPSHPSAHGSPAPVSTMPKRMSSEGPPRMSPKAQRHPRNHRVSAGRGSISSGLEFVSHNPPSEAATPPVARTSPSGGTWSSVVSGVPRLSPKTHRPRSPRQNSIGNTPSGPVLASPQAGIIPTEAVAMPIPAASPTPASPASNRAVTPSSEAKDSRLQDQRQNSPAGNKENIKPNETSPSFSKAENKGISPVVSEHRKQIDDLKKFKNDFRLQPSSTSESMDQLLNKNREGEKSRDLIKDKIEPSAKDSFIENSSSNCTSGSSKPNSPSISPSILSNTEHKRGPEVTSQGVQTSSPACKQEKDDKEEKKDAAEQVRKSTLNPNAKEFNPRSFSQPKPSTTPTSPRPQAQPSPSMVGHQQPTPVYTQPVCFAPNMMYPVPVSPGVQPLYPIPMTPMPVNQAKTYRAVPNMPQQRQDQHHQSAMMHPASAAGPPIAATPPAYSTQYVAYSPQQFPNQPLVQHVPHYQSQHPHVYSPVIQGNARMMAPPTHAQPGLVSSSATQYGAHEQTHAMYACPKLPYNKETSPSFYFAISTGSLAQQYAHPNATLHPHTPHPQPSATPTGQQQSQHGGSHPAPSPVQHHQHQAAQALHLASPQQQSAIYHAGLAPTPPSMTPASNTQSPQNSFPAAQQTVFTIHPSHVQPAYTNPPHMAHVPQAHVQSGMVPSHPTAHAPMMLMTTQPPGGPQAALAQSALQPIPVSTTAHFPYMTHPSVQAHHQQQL
MORF4L2, Q15014, UniProt Q15014, whole entry: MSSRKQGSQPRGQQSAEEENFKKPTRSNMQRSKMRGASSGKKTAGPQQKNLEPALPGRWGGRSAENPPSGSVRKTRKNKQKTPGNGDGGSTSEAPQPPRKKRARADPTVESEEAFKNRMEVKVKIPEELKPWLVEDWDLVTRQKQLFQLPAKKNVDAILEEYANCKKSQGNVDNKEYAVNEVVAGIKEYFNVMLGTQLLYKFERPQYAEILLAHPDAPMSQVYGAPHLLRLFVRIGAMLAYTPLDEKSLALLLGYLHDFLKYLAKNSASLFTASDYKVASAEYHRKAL
TUBB6, Q9BUF5, UniProt Q9BUF5, whole entry: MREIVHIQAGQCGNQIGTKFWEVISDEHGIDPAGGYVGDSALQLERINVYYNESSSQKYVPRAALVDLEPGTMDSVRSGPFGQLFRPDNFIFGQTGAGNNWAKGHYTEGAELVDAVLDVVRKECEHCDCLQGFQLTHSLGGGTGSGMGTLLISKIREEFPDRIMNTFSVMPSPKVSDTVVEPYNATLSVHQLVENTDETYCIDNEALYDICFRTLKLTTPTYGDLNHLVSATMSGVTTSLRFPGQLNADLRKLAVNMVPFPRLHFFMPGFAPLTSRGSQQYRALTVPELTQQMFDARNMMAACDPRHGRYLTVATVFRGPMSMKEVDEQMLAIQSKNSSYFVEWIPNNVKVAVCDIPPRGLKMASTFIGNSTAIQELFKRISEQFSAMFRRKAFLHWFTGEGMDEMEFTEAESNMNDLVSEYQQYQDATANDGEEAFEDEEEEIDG

The target of another assay is C19orf53, Q9UNZ5. On the procedure:
as §1

A further assay addresses CHTOP, Q9Y3Y2. The procedure: as §1
A further assay has as its target CKS2, P33552. On the procedure: as §1
For a further assay, the target named is CXorf56, Q9H5V9. The procedure:
as §1

The target of another assay is GABARAPL2, P60520. On the procedure:
as §1

For another assay, the target named is GAR1, Q9NY12. The procedure: as §1
The next assay addresses PPP2R5D, Q14738. On the procedure: as §1
The next assay concerns the target PRKCSH, P14314. On the procedure:
as §1

For the next assay, the target named is WDR5, P61964. On the procedure:
as §1

A further assay addresses ATG3, Q9NT62. The procedure:
as §1

Another assay concerns the target ATP6V0D1, P61421. On the procedure: as §1
A further assay has as its target ATXN2, Q99700. The procedure: as §1
The next assay concerns the target FKBP1A, P62942. The procedure: as §1
Another assay has as its target MCM2, P49736. The procedure:
as §1

For another assay, the target named is NDUFB7, P17568. On the procedure: as §1
A further assay has as its target P4HB, P07237. The procedure:
as §1

Substrate in assay [1]: PPIF, P30405
On the procedure:
as §1

For the next assay, the target named is TARDBP, Q13148. The procedure: as §1
The target in the next assay is CASC3, O15234. The procedure:
as §1

For a further assay, the target named is CFAP20, Q9Y6A4. On the procedure: as §1
In the next assay the target is CSNK1A1, P48729. The procedure: as §1
The next assay deals with CSNK1D, P48730. The procedure:
as §1

The target in the next assay is CSNK1E, P49674. The procedure:
as §1

The next assay deals with DDX42, Q86XP3. On the procedure: as §1
The target of another assay is DDX49, Q9Y6V7. The procedure:
as §1

The next assay has as its target EIF1, P41567. The procedure: as §1
For another assay, the target named is EMG1, Q92979. On the procedure:
as §1

A further assay deals with FAM98B, Q52LJ0. On the procedure: as §1
Another assay deals with FHL1, Q13642. On the procedure: as §1
The target of the next assay is HDDC2, Q7Z4H3. On the procedure:
as §1

The next assay concerns the target MORF4L1, Q9UBU8. On the procedure: as §1
In another assay the target is MORF4L2, Q15014. On the procedure:
as §1

The next assay has as its target PLK1, P53350. On the procedure:
as §1

Substrate in assay [2]: PPIB, P23284
The procedure:
as §1

Another assay concerns the target RBMX, P38159. The procedure: as §1
Another assay concerns the target SERF2, P84101. On the procedure: as §1
In a further assay the target is SHMT1, P34896. On the procedure:
as §1

In the next assay the target is SRP14, P37108. On the procedure: as §1
A further assay addresses STRAP, Q9Y3F4. The procedure:
as §1

In the next assay the target is ZNF22, P17026. On the procedure: as §1
The target in a further assay is C11orf98, E9PRG8. On the procedure: as §1
The next assay deals with CAPZB, P47756. The procedure:
as §1

The target in a further assay is CCDC137, Q6PK04. On the procedure:
as §1

The next assay deals with CENPB, P07199. On the procedure:
as §1

Another assay has as its target CLTA, P09496. The procedure:
as §1

Another assay addresses CLTB, P09497. On the procedure:
as §1

The target in a further assay is DDX27, Q96GQ7. On the procedure:
as §1

The next assay addresses DECR1, Q16698. The procedure: as §1
In the next assay the target is PIN1, Q13526. The procedure:
as §1

The target of a further assay is PYCR1, P32322. On the procedure:
as §1

In another assay the target is PYCR2, Q96C36. On the procedure: as §1
The next assay addresses SDCBP, O00560. The procedure:
as §1

For another assay, the target named is TBC1D10B, Q4KMP7. On the procedure:
as §1

Another assay has as its target TUBB6, Q9BUF5. On the procedure:
as §1

For a further assay, the target named is UTP11, Q9Y3A2. The procedure:
as §1

The next assay deals with WDR55, Q9H6Y2. The procedure: as §1

± gives the standard deviation of the averaged measurements. The list shows a part of the results. The list holds hits alone, and they repeat only in part.

As to RRTALSWWESVDITG [THAP7], the “PRISMA enrichment of interactor (log2)” value with ALYREF, Q86V81 was 5.44; with C19orf53, Q9UNZ5, 6.84; with CHTOP, Q9Y3Y2 it was 5.62; in the assay with CKS2, P33552, 5.05; in the assay with CXorf56, Q9H5V9, 4.7; with GABARAPL2, P60520, 6.03. Also, the “PRISMA enrichment of interactor (log2)” value is 5.63 with GAR1, Q9NY12; 5.28 with PPP2R5D, Q14738; 5.62 in the assay with PRKCSH, P14314; 5.63 with WDR5, P61964.

As to PSSLWNSEMSTSLSV [RP11-140K17.3_2], the “PRISMA enrichment of interactor (log2)” value amounted to 5.24 with ALYREF, Q86V81; 5.65 with ATG3, Q9NT62; 5.71 with ATP6V0D1, P61421; 5.69 in the assay with ATXN2, Q99700; 4.65 with FKBP1A, P62942; 5.23 with MCM2, P49736. The “PRISMA enrichment of interactor (log2)” value in the assay with NDUFB7, P17568 turned out to be 4.71; with P4HB, P07237, 5.29; in assay [1] it was 5.7; with TARDBP, Q13148 it was 4.42.

Turning to DHREFLSTCECFSAS [NAV2-AS2_2], the “PRISMA enrichment of interactor (log2)” value in the assay with ALYREF, Q86V81 was 5.61 ± 0.14; in the assay with ATP6V0D1, P61421, 5.58; with C19orf53, Q9UNZ5 it was 7.84; in the assay with CASC3, O15234, 4.15; with CFAP20, Q9Y6A4 it was 4.36; in the assay with CSNK1A1, P48729, 5.82. Further, the “PRISMA enrichment of interactor (log2)” value with CSNK1D, P48730 is 4.68; with CSNK1E, P49674 it was 5.21; in the assay with CXorf56, Q9H5V9, 5.45; in the assay with DDX42, Q86XP3, 7.04; with DDX49, Q9Y6V7, 5.7; with EIF1, P41567, 5.1. Besides, the “PRISMA enrichment of interactor (log2)” value with EMG1, Q92979 was determined as 7.34; with FAM98B, Q52LJ0, 5.55; with FHL1, Q13642, 3.95; with GABARAPL2, P60520, 4.56; with HDDC2, Q7Z4H3, 4.22; with MORF4L1, Q9UBU8 it was 4.68. Also, the “PRISMA enrichment of interactor (log2)” value is 5.97 with MORF4L2, Q15014; 4.82 with NDUFB7, P17568; 5.14 with PLK1, P53350; 6.2 in [2]; 6.27 in assay [1]; 5.23 with RBMX, P38159. The “PRISMA enrichment of interactor (log2)” value in the assay with SERF2, P84101 stood at 5.52; in the assay with SHMT1, P34896, 4.08; with SRP14, P37108, 4.99; with STRAP, Q9Y3F4, 4.45; with ZNF22, P17026, 4.37.

TPEELFHLLGADSQ [GLUT1_MUT_1]: the “PRISMA enrichment of interactor (log2)” value with ALYREF, Q86V81 worked out at 5.97; with C11orf98, E9PRG8, 4.86; with C19orf53, Q9UNZ5, 7.98; with CAPZB, P47756, 5.63; in the assay with CCDC137, Q6PK04, 5.21; with CENPB, P07199, 4.54. Further, the “PRISMA enrichment of interactor (log2)” value in the assay with CHTOP, Q9Y3Y2 was 5.09; in the assay with CLTA, P09496 it was 6.28; with CLTB, P09497 it was 4.99; with DDX27, Q96GQ7, 5.83; with DECR1, Q16698 it was 5.28; in the assay with EMG1, Q92979, 5.03. Moreover, the “PRISMA enrichment of interactor (log2)” value was found to be 5.48 with GABARAPL2, P60520; 5.22 in the assay with MORF4L2, Q15014; 4.71 with PIN1, Q13526; 5.34 with PYCR1, P32322; 5.28 in the assay with PYCR2, Q96C36; 4 in the assay with SDCBP, O00560. Further, the “PRISMA enrichment of interactor (log2)” value came out at 4.74 in the assay with TBC1D10B, Q4KMP7; 6.21 in the assay with TUBB6, Q9BUF5; 5.09 with UTP11, Q9Y3A2; 3.96 in the assay with WDR55, Q9H6Y2.

The record behind these values is the supplement of paper PMC10032668.
